Reference: article PMC4355975
Results are given in words; binding and its absence hold for the method and conditions named. In cells and extracts the contact can be indirect. Some binding calls cover weakened binding; strength is not graded here.

Amino acid sequences for entries named in this document (tags omitted). Residues count along the entry.
UniProt P12023, residues 18-770: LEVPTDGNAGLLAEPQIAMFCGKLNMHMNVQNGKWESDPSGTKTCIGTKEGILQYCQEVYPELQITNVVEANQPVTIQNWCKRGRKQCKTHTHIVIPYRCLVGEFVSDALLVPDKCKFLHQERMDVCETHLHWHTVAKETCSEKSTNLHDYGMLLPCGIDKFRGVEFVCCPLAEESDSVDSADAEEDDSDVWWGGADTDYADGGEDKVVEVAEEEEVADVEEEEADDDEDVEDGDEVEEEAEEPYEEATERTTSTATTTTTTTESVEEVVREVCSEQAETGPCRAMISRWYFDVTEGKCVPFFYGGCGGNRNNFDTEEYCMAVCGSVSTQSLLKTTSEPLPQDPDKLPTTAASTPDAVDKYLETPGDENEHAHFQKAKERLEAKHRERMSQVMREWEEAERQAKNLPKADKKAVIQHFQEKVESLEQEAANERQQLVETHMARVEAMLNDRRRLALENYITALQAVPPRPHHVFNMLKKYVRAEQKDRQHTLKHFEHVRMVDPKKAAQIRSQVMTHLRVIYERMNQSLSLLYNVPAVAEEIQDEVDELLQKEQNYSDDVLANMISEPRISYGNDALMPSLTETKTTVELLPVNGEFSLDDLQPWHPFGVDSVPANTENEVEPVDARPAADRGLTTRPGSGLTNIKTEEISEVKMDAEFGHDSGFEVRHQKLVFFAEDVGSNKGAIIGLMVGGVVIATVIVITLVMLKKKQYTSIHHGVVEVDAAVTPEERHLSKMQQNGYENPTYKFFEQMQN

Legend:
[1] = molecular target: Amyloid Precursor Protein (APP) (mouse (endogenous in primary cortical neurons)) (UniProt P12023); assay: co-IP; after cell surface biotinylation of mouse primary cortical neurons at 6 DIV (Cell surface Co-IP); APP precipitated with anti-APP Cter polyclonal antibody; blots for APP and PAT1
[2] = molecular target: Amyloid Precursor Protein (APP) (mouse (endogenous in primary cortical neurons)) (UniProt P12023); assay: co-IP; total extracts of mouse primary cortical neurons at 6 DIV; APP precipitated with anti-APP Cter polyclonal antibody and protein A Sepharose; IP buffer Hepes 10 mM, NaCl 150 mM, CaCl2 2 mM, 1% Triton X 100, 4°C; blots for APP and PAT1

B1: PAT1 (Protein interacting with APP tail 1) (protein, UniProt Q9DAX9 1-585)
chain: MAAVELEWIPETLYNTAISAVVDNYIRSRRDIRSLPENIQFDVYYKLYQQGRLCQLGSEFCELEVFAKVLRALDKRHLLHHCFQALMDHGVKVASVLAYSFSRRCSYIAESDAAVKEKAIQVGFVLGGFLSDAGWYSDAEKVFLSCLQLCTLHDEMLHWFRAVECCVRLLHVRNGNCKYHLGEETFKLAQTYMDKLSKHGQQANRAALYGELCALLFAKSHYDEAYKWCVEAMKEITAGLPVKVVVDVLRQASKACVVKREFKKAEQLIKHAVYLARDHFGSKHPKYSDTLLDYGFYLLNVDNICQSVAIYQAALDIRQSVFGGKNIHVATAHEDLAYSSYVHQYSSGKFDNALFHAERAIGIITHILPEDHLLLASSKRVKALILEEIAIDCHNKETEQRLLQEAHDLHLSSLQLAKKAFGEFNVQTAKHYGNLGRLYQSMRKFKEAEEMHIKAIQIKEQLLGQEDYEVALSVGHLASLYNYDMNQYENAEKLYLRSIAIGKKLFGEGYSGLEYDYRGLIKLYNSIGNYEKVFEYHNVLSNWNRLRDRQYSVTDALEDVSSSPQSTEEVVQSFLMAQNVEGPSC
binding [1]: binds weakly | binding [2]: binds
